Taken from: PubChem BioAssay AID1508588 (Peter MacCallum Cancer Centre, 2020)
The deposit covers about 18,000 reagents; shown is a part drawn at random. In the full data, 790 (4.4%) are marked active. 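Calls rest on a combination of fold-change classes in drug and vehicle arms, not all shown here.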 Unmarked entries are inactive. The numbers tell different reagents against one gene apart. A reagent listed more than once was tested more than once; the source does not tell the runs apart.

- Assay: 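Genome-wide search for knock-downs that heighten vemurafenib action in melanoma cells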 (primary screen)
- Cell system: human WM266.4 melanoma cells (BRAF V600 mutant)
- Knock-down reagent: siRNA pool against human genes, 40 nM
- Timing: 96 h from transfection to read-out
- Treatment: vemurafenib 300 nM (about IC25), added 48 h after transfection, for 48 h; comparison arm got DMSO vehicle only
- Read-out: 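Ratios to non-targeting siRNA for cell gain, counted as DAPI nuclei after minus before drug and averaged over two replicates, and for absorbance-read medium lactate per cell; both binned into fold-change classes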
- Reading the numbers: cell gain with vemurafenib: higher = more cell gain than with non-targeting siRNA; lactate per cell with vemurafenib: higher = more lactate made per cell
- Rule for the call: 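a knock-down counts as enhancing when its fold-change classes with vehicle and with vemurafenib, taken together, show a stronger drug effect on cell gain or lactate per cell; exact class pairs not stated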
- Calls: active = enhances vemurafenib effect; inactive = no enhancement seen

The opening 5 entries, to show the layout:
B3GNT5 | cell gain with vemurafenib: 0.81; lactate per cell with vemurafenib: 0.4
CPNE1 | cell gain with vemurafenib: 0.46 (active); lactate per cell with vemurafenib: 0.23
TBC1D3C | cell gain with vemurafenib: 0.91; lactate per cell with vemurafenib: 0.99
RNF148 | cell gain with vemurafenib: 0.97; lactate per cell with vemurafenib: 0.64
RNF148 | cell gain with vemurafenib: 0.9; lactate per cell with vemurafenib: 0.76

Results, from the first entry:
B3GNT5 | cell gain with vemurafenib: 0.81; lactate per cell with vemurafenib: 0.4
CPNE1 | cell gain with vemurafenib: 0.46 (active); lactate per cell with vemurafenib: 0.23
TBC1D3C | cell gain with vemurafenib: 0.91; lactate per cell with vemurafenib: 0.99
RNF148 | cell gain with vemurafenib: 0.97; lactate per cell with vemurafenib: 0.64
RNF148 | cell gain with vemurafenib: 0.9; lactate per cell with vemurafenib: 0.76
NUP133 | cell gain with vemurafenib: 0.09 (active); lactate per cell with vemurafenib: 0.57
MICAL2 #1 | cell gain with vemurafenib: 0.4; lactate per cell with vemurafenib: 1.46
MICAL2 #2 | cell gain with vemurafenib: 0.75; lactate per cell with vemurafenib: 0.22
RBFA | cell gain with vemurafenib: 0.16; lactate per cell with vemurafenib: 1.23
CRBN | cell gain with vemurafenib: 0.49; lactate per cell with vemurafenib: 1.28
HSPA1L | cell gain with vemurafenib: 0.11; lactate per cell with vemurafenib: 1.31
MAN2A1 | cell gain with vemurafenib: 0.28; lactate per cell with vemurafenib: 1.74
S1PR3 #1 | cell gain with vemurafenib: 0.75; lactate per cell with vemurafenib: 1.09
S1PR3 #2 | cell gain with vemurafenib: 0.53; lactate per cell with vemurafenib: 0.68
VSX2 | cell gain with vemurafenib: 0.72; lactate per cell with vemurafenib: 1.07
ELF5 | cell gain with vemurafenib: 0.91; lactate per cell with vemurafenib: 0.83
MPHOSPH8 | cell gain with vemurafenib: 0.92; lactate per cell with vemurafenib: 0.94
FIGNL2 | cell gain with vemurafenib: 0.77; lactate per cell with vemurafenib: 1.08
RCVRN | cell gain with vemurafenib: 0.68; lactate per cell with vemurafenib: 1.08
EPB41L3 | cell gain with vemurafenib: 0.79; lactate per cell with vemurafenib: 0.84
SLIT3 | cell gain with vemurafenib: 0.46; lactate per cell with vemurafenib: 0.92
ELOF1 | cell gain with vemurafenib: 0.38; lactate per cell with vemurafenib: 0.94
NOTCH2NLA | cell gain with vemurafenib: 0.25; lactate per cell with vemurafenib: 0.96
KRTAP5-10 | cell gain with vemurafenib: 0.62; lactate per cell with vemurafenib: 0.37
AP1M2 | cell gain with vemurafenib: 0.89; lactate per cell with vemurafenib: 0.32
ACIN1 | cell gain with vemurafenib: 0.85; lactate per cell with vemurafenib: 1.02
SMIM14 | cell gain with vemurafenib: -0.05; lactate per cell with vemurafenib: 0.78
CNTROB | cell gain with vemurafenib: 0.24; lactate per cell with vemurafenib: 0.7
PCED1A | cell gain with vemurafenib: 0.58; lactate per cell with vemurafenib: 0.31
PLCE1 | cell gain with vemurafenib: 0.6; lactate per cell with vemurafenib: 0.78
SUPT3H | cell gain with vemurafenib: 0.53; lactate per cell with vemurafenib: 1.1
PPY | cell gain with vemurafenib: 0.64 (active); lactate per cell with vemurafenib: 0.44
GABRD | cell gain with vemurafenib: 0.36; lactate per cell with vemurafenib: 2.25
PCDHB10 | cell gain with vemurafenib: 1.08; lactate per cell with vemurafenib: 0.54
NRXN3 | cell gain with vemurafenib: 0.85; lactate per cell with vemurafenib: 0.54
HOOK3 | cell gain with vemurafenib: 0.89; lactate per cell with vemurafenib: 0.99
ENTPD7 | cell gain with vemurafenib: 0.77; lactate per cell with vemurafenib: 1.03
MYCBP | cell gain with vemurafenib: 0.45; lactate per cell with vemurafenib: 0.94
ETV3L | cell gain with vemurafenib: 0.22; lactate per cell with vemurafenib: 0.66
GPR37 | cell gain with vemurafenib: 0.89; lactate per cell with vemurafenib: 1.01
